Measured values published in patent publication US20190367609A1 (INNATE PHARMA, published 2019).
Results are given in words; binding and its absence hold for the method and conditions named. Some binding calls cover weakened binding; strength is not graded here.

The chains behind the UniProt entries cited, without tags or fusion partners. Where a name states a change or a piece, a line headed by the entry shows the natural chain unless it says otherwise.
UniProt O76036: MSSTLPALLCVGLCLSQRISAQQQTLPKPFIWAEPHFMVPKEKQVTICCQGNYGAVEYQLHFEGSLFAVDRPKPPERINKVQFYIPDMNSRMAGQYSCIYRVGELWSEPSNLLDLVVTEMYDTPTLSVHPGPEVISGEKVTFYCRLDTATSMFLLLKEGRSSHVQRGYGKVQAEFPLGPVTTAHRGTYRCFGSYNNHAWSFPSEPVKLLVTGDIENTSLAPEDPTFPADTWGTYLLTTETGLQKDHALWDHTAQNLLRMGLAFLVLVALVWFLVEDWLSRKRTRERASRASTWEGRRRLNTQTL
UniProt P24161: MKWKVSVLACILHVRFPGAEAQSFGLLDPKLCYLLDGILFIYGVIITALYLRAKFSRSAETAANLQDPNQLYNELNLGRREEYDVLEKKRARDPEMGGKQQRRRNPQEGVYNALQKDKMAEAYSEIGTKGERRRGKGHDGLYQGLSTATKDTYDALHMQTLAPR

Experiments:
[1] = target: chimeric protein of the extracellular portion of human NKp46 fused to the intra-cytoplasmic domain of mouse CD3, on DO.11.10 reporter cells (human; mouse) (UniProt O76036+P24161); assay: flow cytometry primary screen, hybridoma supernatant on DO.11.10 reporter cells, goat anti-mouse pAb-PE
[2] = target: Human 6xHis tagged NKp46 recombinant protein (human) (UniProt O76036); assay: HX-MS, NKp46-His and antibody mixed at 20 µM each

Row | Binder | binding [1] | binding [2]
1 | 9H11A (antibody, V domains shown, also called CHG1-M-H46 9H11-A) VH: QVQLQQPGAELVKPGASVKLSCKASGYTFTSYWMHWVKLRPGQGFEWIGEIIPSNGVTNYNEKFKRKATLTVDKSSSTAYMQLSSLTSEDSAVYYCTIRLRYALDYWGQGTSVTVSA VL: DIQMTQTTSSLSASLGDRVTISCRASQDISNFLNWYQQKPDGTVKLLIYYTSRLHSGVPSRFSGSGSGTDYSLTISNLEQEDIATYFCQQGNTLPPTFGGGTKLEIK | binds | binds
2 | 17E1 (antibody, V domains shown, also called CHG1-M-H46 17E1) VH: QVQLQQPGSVLVRPGASVKLSCKASGYTFTSSWMHWAKQRPGQGLEWIGHIHPNSGISNYNEKFKGKATLTVDTSSSTAYVDLSSLTSEDSAVYYCSRGGRFDDWGAGTTVTVSS VL: DIQMTQSPSSLSASLGERVSLTCRASQDIGSSLNWLQQEPDGTIKRLIYATSRLDSGVPKRFSGSRSGSDYSLTISSLESEDFVDYYCLQYASSPWTFGGGTKLEIK | binds | binds
3 | 8B6A (antibody, V domains shown, Mouse variable domains; light chain is kappa (VK); also called CHG1-M-H46 8B6-A) VH: QVQLQQPGSELVRPGASVKLSCKASGYTFTSYWMHWVKQRPGQGLEWIGTIYPGSDITNYDEKFKNKATLTVDTSSSTAYMQLSSLTSEDSAVYYCTRDGRFANWGQGTLVTVSA VL: EIVLTQSPAITAASLGQKVTITCSASSSVSYMHWYQQKSGTSPKPWIYEISKLASGVPARFSGSGSGTSYSLTISSMEAEDAAIYYCQQWNLPLTFGAGTKLELK | binds | binds

Now from value to binder:

Row | binding [1] | binding [2] | Binder
4 | binds | – | 9H11B (antibody, V domains shown, Same heavy chain variable domain as 9H11A with a different light chain; also called CHG1-M-H46 9H11-B) VH: QVQLQQPGAELVKPGASVKLSCKASGYTFTSYWMHWVKLRPGQGFEWIGEIIPSNGVTNYNEKFKRKATLTVDKSSSTAYMQLSSLTSEDSAVYYCTIRLRYALDYWGQGTSVTVSA VL: DIVMTQSQKFMSTSVGDRVSVTCKASQNVGTNVAWYQQKPGQSPKALIYSTSFRYSGVPDRFTGSGSGTDFTLTISNVQSEDLAEYFCQQYNSYPFTFGSGTKLEIK
5 | binds | – | 8B6B (antibody, V domains shown, Same heavy chain variable domain as 8B6A with a different light chain; also called CHG1-M-H46 8B6-B) VH: QVQLQQPGSELVRPGASVKLSCKASGYTFTSYWMHWVKQRPGQGLEWIGTIYPGSDITNYDEKFKNKATLTVDTSSSTAYMQLSSLTSEDSAVYYCTRDGRFANWGQGTLVTVSA VL: EIQMTQSPSSLSASLGERVSLTCRASQDIGSSLNWLQQEPDGTIKRLIYATSSLDSGVPKRFSGSRSGSDYSLTISSLESEDFVDYYCLQYASSPYTFGGGTKLEIK
